From US8268961B2, “Antibacterial peptides and analogues thereof” (Universita Degli Studi di Siena, priority 2004, dated 2012)
Some entries share one result that the patent states for a list of compounds. Positions of bridges follow the written chain, without caps; N, C: chain ends. Residues, ends and D or L forms follow the SMILES beside them. Chains are numbered I, II in the order given.

What was measured:
human erythrocytes = assay: Haemolysis, Parpart erythrocyte osmotic resistance assay; format: cell-based; conditions: 30 min incubation, 125 μg/ml (maximum concentration tested)
Description: The haemolytic activity of M5 and M6 was also evaluated and is represented FIG. 9. Haemolysis of fresh human erythrocytes was determined at peptide concentrations ranging from 1 to 125 μg/ml. […] By contrast, after 19 hours of incubation, the haemolysis induced by M6 and M5 at 125 μg/ml is 7% and 19%, respectively. The percentage of haemolysis of untreated blood after 19 hours (control) is very limited (<1%).
The haemolytic activity of the KIRVRLSA [SEQ ID NO: 3] (M5) and […] [SEQ ID NO: 4] (M6) peptides was evaluated by the Parpart erythrocyte osmotic resistance assay in NaCl. The percentage of haemolysis was calculated by means of a calibration curve obtained incubating the erythrocytes with increasing concentrations of NaCl and measuring the absorbance increase, due to haemolysis, at 540 nm. 0.9% NaCl solutions containing the MAP peptides at different concentrations were then prepared, whereto was added human blood in the ratio of 1:100 (v/v). The samples were left at ambient temperature for 30 min and 19 hours; subsequently, a portion was drawn for each incubation, centrifuged at 1500 rpm for 5 min and the absorbance of the super was measured with the spectrophotometer at 540 nm.

[1] = tested on: murine macrophage cells J774 A.1; assay: Cytotoxicity test by MTT; format: cell-based, mouse; conditions: J774.A1, overnight
Description: The cytotoxicity of antibacterial MAP peptides was evaluated on different eukaryotic cell lines by a colorimetric assay (MTT). This assay measures the cells' ability to convert a soluble tetrazolium salt into an insoluble precipitate: formazan. The cytotoxicity of M1 was evaluated on murine macrophagic cells (J774 A.1), murine myeloma cells (SPO) and Chinese hamster ovary epithelium cells (CHO K1). As shown FIG. 4, even at high concentrations (1 mg/ml) M1 cytotoxicity on CHO K1 cells and on SPO cells is low (percent survival is 80-90%).
For cytotoxicity tests, different cell lines were used: murine myeloma cells SPO, hamster ovary epithelium cells CHO K 1, murine macrophage cells J774 A.1 and human keratinocytes HaCaT. The cells were plated in medium in RPMI 1640 (SPO and CHO K 1) and DMEM (J774 A.1 and HaCaT) with antibiotics and bovine foetal serum at 10%, in 96-well plates at the concentration of 6×10^4 (SPO, CHO K1 and J774 A.1) and 3×10^4 (HaCaT). […] Cell viability was determined adding the MTT tetrazolium salt at the concentration of 0.5 mg/ml and incubating for 90 min. The cells were solubilised with a solution at pH 4.5 containing SDS 10% and dimethylformamide 45% and read at the dual wavelength of 595/650 nm with a plate reader.

E. coli strain TG1 = assay: Test of antibacterial activity (colony growth inhibition) on E. coli strain TG1; format: cell-based; conditions: E. coli TG1, MAP form
Description: The antimicrobic activity of the peptides in linear form (L1, L4, L5, L6) and in MAP form (M1, M4, M5, M6) was assayed on the TG1 strain of E. coli. The peptides were incubated at various concentrations (2-1-0.5-0.25-0.12 mg/ml) with cells of E. coli (OD600=0.2) for about 1 hour at 37° C. Subsequently, the cells were plated on agar at dilution such to allow counting of individual colonies. The antimicrobic activity of the synthesised peptide L 1 and M1 is shown FIG. 1 and is compared to a non correlated MAP peptide (MNC) used as negative control.
In one example, the tetrabranched MAP peptides with the amino acid sequence: QAKIRVRLSA [SEQ ID NO: 2], KIRVRLSA [SEQ ID NO: 3], QKKIRVRLSA [SEQ ID NO: 4] are used individually in a bacterial colony growth inhibition test. The test is conducted by incubating different concentrations of MAP peptides with E. coli (strain TG1) and plating bacterial cells on agar at a dilution such to allow for individual colonies counting. The following day, the number of colonies grown after treatment with the three MAP peptides is compared.
Antimicrobic tests were conducted incubating for 75 min at 37° C., 25 μL of E. coli at the OD600 of 0.2 with 25 μl of MAP peptide dissolved in PBS at the various concentrations. […] The plates were left overnight at 30° C. and the individual grown colonies were counted and compared with a control, not treated with MAP peptide.

CC[C@H](C)[C@H](NC(=O)[C@@H](N)CCCCN)C(=O)N[C@@H](CCCNC(=N)N)C(=O)N[C@H](C(=O)N[C@@H](CCCNC(=N)N)C(=O)N[C@@H](CC(C)C)C(=O)N[C@@H](CO)C(=O)N[C@@H](C)C(=O)NCCCC[C@H](NC(=O)[C@H](C)NC(=O)[C@H](CO)NC(=O)[C@H](CC(C)C)NC(=O)[C@H](CCCNC(=N)N)NC(=O)[C@@H](NC(=O)[C@H](CCCNC(=N)N)NC(=O)[C@@H](NC(=O)[C@@H](N)CCCCN)[C@@H](C)CC)C(C)C)C(=O)NCCCC[C@H](NC(=O)[C@H](CCCCNC(=O)[C@H](C)NC(=O)[C@H](CO)NC(=O)[C@H](CC(C)C)NC(=O)[C@H](CCCNC(=N)N)NC(=O)[C@@H](NC(=O)[C@H](CCCNC(=N)N)NC(=O)[C@@H](NC(=O)[C@@H](N)CCCCN)[C@@H](C)CC)C(C)C)NC(=O)[C@H](C)NC(=O)[C@H](CO)NC(=O)[C@H](CC(C)C)NC(=O)[C@H](CCCNC(=N)N)NC(=O)[C@@H](NC(=O)[C@H](CCCNC(=N)N)NC(=O)[C@@H](NC(=O)[C@@H](N)CCCCN)[C@@H](C)CC)C(C)C)C(=O)N[C@@H](C)C(=O)O)C(C)C [M5, KIRVRLSA] (I: H-KIRVRLSAKKA-OH / II: H-KIRVRLSAK / III: H-KIRVRLSA / IV: H-KIRVRLSA; amide I:9-IV:C, I:10-II:C, II:9-III:C; N-terminus assumed)
haemolysis of human erythrocytes (human erythrocytes): less than 5% | Concentration at and over which a drop in cell viability was evident (MTT) [1]: ≥ 125 µg/mL | Concentration down to which TG1 E. coli colony growth is prevented (E. coli strain TG1): ≤ 6.25 µg/mL
